According to article PMC6764944:
No constants are given. Whether binding was seen depends on the method and setting. Binding seen in cells or lysates may run through a third protein. Some binding calls cover weakened binding; strength is not graded here. Tags and fused reporters may be left off the sequences shown. Values belong to the molecule of their own block, whether it stands above or below them.

Sequences of proteins named here, by UniProt entry; tags and fusion partners are left off.
UniProt P14713: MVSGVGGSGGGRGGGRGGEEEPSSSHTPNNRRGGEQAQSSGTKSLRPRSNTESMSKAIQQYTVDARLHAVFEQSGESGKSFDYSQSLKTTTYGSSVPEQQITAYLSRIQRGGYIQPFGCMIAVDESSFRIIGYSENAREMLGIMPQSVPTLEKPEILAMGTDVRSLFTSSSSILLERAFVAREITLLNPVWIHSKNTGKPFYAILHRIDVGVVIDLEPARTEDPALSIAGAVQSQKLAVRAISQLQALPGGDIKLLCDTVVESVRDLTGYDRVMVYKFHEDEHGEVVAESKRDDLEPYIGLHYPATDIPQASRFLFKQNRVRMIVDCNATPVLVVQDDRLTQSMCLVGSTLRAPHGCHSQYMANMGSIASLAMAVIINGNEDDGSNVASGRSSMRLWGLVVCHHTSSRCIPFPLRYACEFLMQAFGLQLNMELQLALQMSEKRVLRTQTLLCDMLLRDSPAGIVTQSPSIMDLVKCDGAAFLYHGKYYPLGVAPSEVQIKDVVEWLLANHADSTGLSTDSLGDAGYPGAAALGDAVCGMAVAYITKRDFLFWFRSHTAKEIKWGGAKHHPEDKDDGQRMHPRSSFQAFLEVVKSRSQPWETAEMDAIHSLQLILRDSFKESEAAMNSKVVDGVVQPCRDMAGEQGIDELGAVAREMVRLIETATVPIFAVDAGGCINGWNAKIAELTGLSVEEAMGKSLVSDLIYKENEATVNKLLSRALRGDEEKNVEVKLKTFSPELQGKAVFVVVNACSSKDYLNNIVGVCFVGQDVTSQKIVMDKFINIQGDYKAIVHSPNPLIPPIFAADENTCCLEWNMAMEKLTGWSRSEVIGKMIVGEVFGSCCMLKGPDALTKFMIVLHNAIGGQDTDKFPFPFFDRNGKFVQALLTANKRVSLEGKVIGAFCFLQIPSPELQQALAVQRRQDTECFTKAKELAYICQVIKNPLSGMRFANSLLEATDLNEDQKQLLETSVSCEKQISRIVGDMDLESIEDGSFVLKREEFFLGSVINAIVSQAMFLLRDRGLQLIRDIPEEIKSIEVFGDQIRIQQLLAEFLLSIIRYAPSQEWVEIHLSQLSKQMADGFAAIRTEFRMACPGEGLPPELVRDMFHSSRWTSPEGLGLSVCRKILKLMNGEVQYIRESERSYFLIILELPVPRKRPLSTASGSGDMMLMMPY

Target: T1, PIF5-HA (PHYTOCHROME … FACTOR 5 with HA tag, expressed from 35S:PIF5-HA) (Arabidopsis) (UniProt Q84LH8)
T1 sequence: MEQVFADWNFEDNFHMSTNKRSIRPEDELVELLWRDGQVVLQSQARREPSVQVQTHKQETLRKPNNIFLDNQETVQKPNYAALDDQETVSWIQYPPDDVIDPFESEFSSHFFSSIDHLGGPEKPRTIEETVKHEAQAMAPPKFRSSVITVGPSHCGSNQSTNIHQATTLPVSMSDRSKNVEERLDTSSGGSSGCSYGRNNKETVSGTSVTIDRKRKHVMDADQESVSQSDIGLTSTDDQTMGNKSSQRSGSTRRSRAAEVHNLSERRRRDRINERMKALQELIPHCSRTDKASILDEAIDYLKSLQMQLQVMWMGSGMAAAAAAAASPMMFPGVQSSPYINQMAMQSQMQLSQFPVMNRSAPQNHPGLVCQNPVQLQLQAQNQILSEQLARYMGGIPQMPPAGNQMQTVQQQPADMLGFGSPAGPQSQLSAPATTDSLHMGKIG
Assay: co-IP; PIF5-HA precipitated with anti-HA magnetic beads (µMACS) from 4 mg total protein extract of 10-day-old light-grown seedlings (LerPIF5Ox, uvr8-1PIF5Ox) transferred at dawn to high R:FR ± UV-B for 1 h; 50 mM Tris-HCl pH 8, 150 mM NaCl, 0.5% Nonidet P-40, 0.05% sodium deoxycholate; 3 h in cold room; immunoblots of eluates

binding: binds
Molecule: Phytochrome B (PHYB) (from UniProt P14713 1-1172)

binding: no binding
B1: UV … LOCUS 8 (UVR8) (protein, UniProt Q9FN03 1-440)
chain: MAEDMAADEVTAPPRKVLIISAGASHSVALLSGDIVCSWGRGEDGQLGHGDAEDRPSPTQLSALDGHQIVSVTCGADHTVAYSQSGMEVYSWGWGDFGRLGHGNSSDLFTPLPIKALHGIRIKQIACGDSHCLAVTMEGEVQSWGRNQNGQLGLGDTEDSLVPQKIQAFEGIRIKMVAAGAEHTAAVTEDGDLYGWGWGRYGNLGLGDRTDRLVPERVTSTGGEKMSMVACGWRHTISVSYSGALYTYGWSKYGQLGHGDLEDHLIPHKLEALSNSFISQISGGWRHTMALTSDGKLYGWGWNKFGQVGVGNNLDQCSPVQVRFPDDQKVVQVSCGWRHTLAVTERNNVFAWGRGTNGQLGIGESVDRNFPKIIEALSVDGASGQHIESSNIDPSSGKSWVSPAERYAVVPDETGLTDGSSKGNGGDISVPQTDVKRVRI
